Test results as given in patent US20230257444A1, “FUSION PROTEIN AND COMBINATIONS THEREOF” (Agency for Science, Technology and Research, priority 2020, published 2023).
Some of these results come from one statement about several compounds together.

System: SC5314 Candida albicans
Assay: In vivo mouse combination therapy survival model (Amphotericin B & hDectin1-Fc)
Design: species or system Balb/c mice
Settings: post 7 days (FIG. 16A); 0.5 million Candida albicans SC5314; monotherapy: 1 mg hDectin1-Fc single bolus or 0.05 mg/kg/day Amphotericin B for 7 days

“hDectin1-Fc: soluble dimeric fusion protein: human Dectin-1 receptor polypeptide (aa 73-247) fused to human IgG1 Fc via hinge; SEQ ID NO: 5” was tested. Which survival did it give?
The survival was < 40%.
